This experiment concerns the target T1, flag-Sharpin, full length (Shank-associated RH domain-interacting protein) (human) (UniProt Q9H0F6).
T1 sequence: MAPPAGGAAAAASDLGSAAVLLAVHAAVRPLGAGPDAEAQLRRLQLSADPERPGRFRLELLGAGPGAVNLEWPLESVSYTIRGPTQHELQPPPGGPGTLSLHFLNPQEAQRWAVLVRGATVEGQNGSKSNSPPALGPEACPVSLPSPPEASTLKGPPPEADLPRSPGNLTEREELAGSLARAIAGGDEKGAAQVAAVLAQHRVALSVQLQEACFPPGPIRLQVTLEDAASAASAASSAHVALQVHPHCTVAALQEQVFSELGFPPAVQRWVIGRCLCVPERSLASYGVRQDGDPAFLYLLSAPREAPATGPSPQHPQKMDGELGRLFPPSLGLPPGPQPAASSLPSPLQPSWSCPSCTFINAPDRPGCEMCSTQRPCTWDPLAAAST
Kind of experiment: co-IP; 293T cells transfected with FG-Sharpin or its deletion mutants; lysis and wash in 50 mM Tris-HCl (pH 7.5), 150 mM NaCl, 0.5% NP-40; antibody 1 h and protein G-Sepharose 1 h at 4 °C; endogenous β-catenin detected by blot.

Protein sequences, listed by entry. Tags and fused reporters are not part of them.
UniProt P35222: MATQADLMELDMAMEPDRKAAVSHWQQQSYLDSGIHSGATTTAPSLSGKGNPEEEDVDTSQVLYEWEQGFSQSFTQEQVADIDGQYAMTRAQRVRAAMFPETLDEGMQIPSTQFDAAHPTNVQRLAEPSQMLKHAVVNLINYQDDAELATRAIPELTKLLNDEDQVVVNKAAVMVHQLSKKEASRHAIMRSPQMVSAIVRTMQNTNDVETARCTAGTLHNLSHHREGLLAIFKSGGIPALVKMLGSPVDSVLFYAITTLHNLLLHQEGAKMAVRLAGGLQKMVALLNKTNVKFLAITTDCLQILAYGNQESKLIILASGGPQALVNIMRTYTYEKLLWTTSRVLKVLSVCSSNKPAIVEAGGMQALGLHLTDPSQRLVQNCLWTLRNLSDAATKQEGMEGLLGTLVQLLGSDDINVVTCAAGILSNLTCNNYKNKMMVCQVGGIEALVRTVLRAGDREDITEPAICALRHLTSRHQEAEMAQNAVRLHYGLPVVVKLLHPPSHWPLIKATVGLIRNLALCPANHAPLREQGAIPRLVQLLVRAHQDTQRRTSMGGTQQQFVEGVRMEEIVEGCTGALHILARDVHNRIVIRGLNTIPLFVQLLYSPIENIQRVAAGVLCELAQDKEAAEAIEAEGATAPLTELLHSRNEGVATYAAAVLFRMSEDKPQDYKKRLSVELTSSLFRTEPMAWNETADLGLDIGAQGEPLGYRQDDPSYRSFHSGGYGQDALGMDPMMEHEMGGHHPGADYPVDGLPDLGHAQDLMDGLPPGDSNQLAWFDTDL

These are yes or no findings as the source states them, for the method shown. In cells and extracts the contact can be indirect. Some results given as binding are weak or reduced against the parent protein; the word gives no strength. Where a sequence is shown, tags or fusion partners need not be part of it.

This note sets out measurements from PMC5177774.

“endogenous β-catenin (from UniProt P35222 1-781)”: the binding entry was “binds”.
